# Drug screen on melanoma cell lines: cell count

Drugs:
NVP-TAE684 (0.08 µM): COc1cc(N2CCC(N3CCN(C)CC3)CC2)ccc1Nc1ncc(Cl)c(Nc2ccccc2S(=O)(=O)C(C)C)n1
GSK0660 (1 µM): COC(=O)c1sccc1S(=O)(=O)Nc1ccc(Nc2ccccc2)cc1OC
cisplatin (1.6 µM): N.N.[Cl][Pt][Cl]
perifosine (0.4 µM): CCCCCCCCCCCCCCCCCCOP(=O)([O-])OC1CC[N+](C)(C)CC1
GW0742 (2 µM): Cc1cc(SCc2sc(-c3ccc(C(F)(F)F)c(F)c3)nc2C)ccc1OCC(=O)O
ABT-263 (0.4 µM): CC1(C)CCC(c2ccc(Cl)cc2)=C(CN2CCN(c3ccc(C(=O)NS(=O)(=O)c4ccc(N[C@H](CCN5CCOCC5)CSc5ccccc5)c(S(=O)(=O)C(F)(F)F)c4)cc3)CC2)C1
Src-I1 (2 µM): COc1cc2ncnc(Nc3ccc(Oc4ccccc4)cc3)c2cc1OC
stibogluconate (2 µM): O=C(O)[C@@H]1[O][Sb](=[O])([O][Sb]2(=[O])[O][C@H]([C@H](O)CO)[C@H](O)[C@H](C(=O)O)[O]2)[O][C@H]([C@H](O)CO)[C@@H]1O (stereo partly drawn)
pazopanib (0.4 µM): Cc1ccc(Nc2nccc(N(C)c3ccc4c(C)n(C)nc4c3)n2)cc1S(N)(=O)=O
indole-3-carbinol (0.8 µM): OCc1c[nH]c2ccccc12
LFM-A13 (2 µM): C/C(O)=C(\C#N)C(=O)Nc1cc(Br)ccc1Br
KU-55933 (1 µM): O=c1cc(-c2cccc3c2Sc2ccccc2S3)oc(N2CCOCC2)c1
TCS401 (1.67 µM): O=C(O)C(=O)Nc1sc2c(c1C(=O)O)CCNC2
A-769662 (2 µM): N#Cc1c(O)c2c(-c3ccc(-c4ccccc4O)cc3)csc2[nH]c1=O
tanespimycin (0.002 µM): C=CCNC1=C2C[C@@H](C)C[C@H](OC)[C@H](O)[C@@H](C)/C=C(\C)[C@H](OC(N)=O)[C@@H](OC)/C=C\C=C(/C)C(=O)NC(=CC1=O)C2=O

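Human melanoma cells were exposed to a pair of drugs for 72 h in 1,536-well plates and read by automated microscopy after fixing and staining. The read-out is cell count (nuclei) in % of the DMSO control; lower values mean stronger growth inhibition or killing. Every drug was used at one fixed concentration, the lower of two screened (a fifth of the higher). These are primary screening values without error estimates.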 An unselected part of the screen is shown. An entry leaves out what has no value listed here. A dash means that no value is listed here.

Drugs | A101D | A375 | 501mel | A2058 | C32
A-769662 + TCS401 | 106 | 91.4 | 111 | 112 | 119
NVP-TAE684 + tanespimycin | 97.5 | - | - | 98.7 | 74.2
NVP-TAE684 + indole-3-carbinol | 91.3 | - | 75.6 | 80.3 | 101
GW0742 + ABT-263 | 47.1 | - | - | 98.9 | 63.1
indole-3-carbinol + GW0742 | 114 | - | 82.7 | 99.0 | 109
NVP-TAE684 + cisplatin | 98.4 | - | 85.4 | 94.2 | 95.0
stibogluconate + A-769662 | 130 | - | - | 102 | 90.2
Src-I1 + ABT-263 | 64.9 | - | - | 91.5 | 54.6
NVP-TAE684 + GSK0660 | 98.5 | 85.7 | 84.3 | 72.8 | 87.1
KU-55933 + stibogluconate | 94.2 | - | 92.5 | 101 | 93.0
LFM-A13 + ABT-263 | 44.9 | - | - | 91.9 | 46.1
pazopanib + GW0742 | 99.9 | - | 97.5 | 103 | 92.4
KU-55933 + TCS401 | 105 | 109 | 99.4 | 113 | 99.6
A-769662 + pazopanib | 96.3 | - | 111 | 100 | 112
perifosine + NVP-TAE684 | 96.4 | - | 73.2 | 76.1 | 99.8
LFM-A13 + tanespimycin | 107 | - | - | 102 | 97.8
KU-55933 + A-769662 | 108 | 101 | 90.3 | 90.5 | 100
LFM-A13 + perifosine | 90.3 | - | 97.2 | 92.3 | 89.9
A-769662 + indole-3-carbinol | 103 | - | 85.1 | 92.4 | 114
Src-I1 + KU-55933 | 111 | 108 | 95.5 | 96.6 | 102
LFM-A13 + indole-3-carbinol | 89.2 | - | 84.7 | 99.7 | 85.4
GW0742 + tanespimycin | 101 | - | - | 96.0 | 85.4
LFM-A13 + stibogluconate | 103 | - | 125 | 108 | 93.1
indole-3-carbinol + Src-I1 | 101 | - | 132 | 99.8 | 97.2
GSK0660 + indole-3-carbinol | 103 | - | 125 | 111 | 104
GSK0660 + cisplatin | 96.0 | - | 115 | 112 | 115
GSK0660 + ABT-263 | 53.5 | - | - | 96.2 | 60.6
pazopanib + KU-55933 | 90.4 | - | 136 | 101 | 98.8
GW0742 + stibogluconate | 110 | - | 77.6 | 88.9 | 98.9
tanespimycin + KU-55933 | 103 | - | - | 95.1 | 62.5
perifosine + GW0742 | 90.6 | - | 77.8 | 98.0 | 118
cisplatin + Src-I1 | 93.9 | - | 104 | 99.2 | 102
A-769662 + perifosine | 98.4 | - | 88.6 | 92.6 | 102
NVP-TAE684 + pazopanib | 100 | - | 89.0 | 75.6 | 104
cisplatin + GW0742 | 109 | - | 81.5 | 87.0 | 106
cisplatin + TCS401 | 87.2 | - | 105 | 91.6 | 93.9
TCS401 + pazopanib | 84.6 | - | 111 | 80.5 | 111
stibogluconate + Src-I1 | 111 | - | - | 80.2 | 96.3
GSK0660 + Src-I1 | 112 | 102 | 122 | 92.8 | 82.4
TCS401 + perifosine | 89.0 | - | 89.1 | 97.3 | 115

3 of the entries, repeated:

- A-769662 + TCS401 | A101D: 106; A375: 91.4; 501mel: 111; A2058: 112; C32: 119
- stibogluconate + Src-I1 | A101D: 111; A2058: 80.2; C32: 96.3
- TCS401 + perifosine | A101D: 89.0; 501mel: 89.1; A2058: 97.3; C32: 115

Data from the primary screen of doi:10.1371/journal.pone.0140310, rounded.